Results are given in words; binding and its absence hold for the method and conditions named. Some entries that bind do so weakly or less than the wild type. For part of these data: Sequences can lack the tags named with a protein.
Experiments:
[1] = biological target: T1, native MIC4 of the Lac+ fraction (Toxoplasma gondii (endogenous in tachyzoites)) (UniProt Q9XZH7); assay: affinity chromatography on a lactose column; total soluble tachyzoite antigen (STAg) loaded on a lactose column in PBS with 0.5 M NaCl; eluted with 0.1 M lactose (Lac+ fraction)
T1 sequence: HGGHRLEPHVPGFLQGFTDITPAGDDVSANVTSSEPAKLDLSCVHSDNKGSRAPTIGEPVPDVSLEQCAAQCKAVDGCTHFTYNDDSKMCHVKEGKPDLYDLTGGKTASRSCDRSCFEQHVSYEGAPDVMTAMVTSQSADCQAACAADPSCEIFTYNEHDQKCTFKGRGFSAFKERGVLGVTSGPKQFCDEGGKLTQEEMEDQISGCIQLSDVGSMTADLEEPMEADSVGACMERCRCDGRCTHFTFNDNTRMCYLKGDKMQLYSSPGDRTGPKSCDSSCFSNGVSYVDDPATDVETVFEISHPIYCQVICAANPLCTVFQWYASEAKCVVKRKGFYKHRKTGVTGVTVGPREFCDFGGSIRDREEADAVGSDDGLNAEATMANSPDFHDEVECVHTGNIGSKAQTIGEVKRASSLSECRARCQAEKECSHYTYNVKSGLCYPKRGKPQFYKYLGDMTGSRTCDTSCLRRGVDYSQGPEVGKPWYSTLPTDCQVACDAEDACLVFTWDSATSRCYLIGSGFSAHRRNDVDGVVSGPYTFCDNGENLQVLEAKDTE

Sequences of proteins named here, by UniProt entry; tags and fusion partners are left off. Residues count along the entry.
UniProt O00834, residues 17-456: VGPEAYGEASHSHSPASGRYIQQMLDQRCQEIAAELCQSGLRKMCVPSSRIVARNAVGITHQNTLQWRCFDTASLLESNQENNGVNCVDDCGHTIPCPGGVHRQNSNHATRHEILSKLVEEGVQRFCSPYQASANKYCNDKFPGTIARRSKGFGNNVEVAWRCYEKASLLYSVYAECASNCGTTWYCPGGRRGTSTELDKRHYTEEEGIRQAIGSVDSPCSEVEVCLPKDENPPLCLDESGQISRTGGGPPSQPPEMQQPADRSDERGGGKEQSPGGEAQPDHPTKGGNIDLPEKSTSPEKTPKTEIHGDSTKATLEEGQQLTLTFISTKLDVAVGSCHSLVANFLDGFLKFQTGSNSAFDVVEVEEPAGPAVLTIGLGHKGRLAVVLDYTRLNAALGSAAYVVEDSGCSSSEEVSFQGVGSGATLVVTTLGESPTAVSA

[2] = biological target: T2, fetuin (UniProt P12763); assay: ELISA; microplates coated with 1 ug/well fetuin or asialofetuin (carbonate buffer pH 9.6, overnight 4°C); rMIC added for 2 h at 25°C, with or without pre-incubation with sugar; detected with serum of T. gondii-infected mice; absorbance at 450 nm; both purified
T2 sequence (chain, glycoprotein with sialic acid): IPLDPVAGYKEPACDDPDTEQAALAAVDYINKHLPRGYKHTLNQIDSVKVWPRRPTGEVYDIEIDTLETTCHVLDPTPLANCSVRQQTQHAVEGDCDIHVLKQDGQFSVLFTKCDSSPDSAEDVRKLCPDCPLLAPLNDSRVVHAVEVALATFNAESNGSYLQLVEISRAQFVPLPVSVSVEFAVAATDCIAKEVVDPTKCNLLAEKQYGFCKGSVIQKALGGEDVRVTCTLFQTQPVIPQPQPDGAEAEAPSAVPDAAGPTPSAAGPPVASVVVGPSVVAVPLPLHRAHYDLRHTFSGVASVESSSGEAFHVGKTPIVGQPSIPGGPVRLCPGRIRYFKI

[3] = biological target: T3, asialofetuin (UniProt P12763); assay: as above
T3 sequence (chain, glycoprotein without sialic acid): T2 sequence (chain, glycoprotein with sialic acid)

In the case of “native MIC1 of the Lac+ fraction (from UniProt O00834 17-456)”, the binding [1] is reported as “binds”.

“recombinant MIC1 (Toxoplasma gondii microneme protein 1), His-tagged (from UniProt O00834 17-456)” was tested, and the binding [2] was “binds”.

B1: recombinant MIC4 (Toxoplasma gondii microneme protein 4), His-tagged (protein, UniProt Q9XZH7 26-580)
chain: T1 sequence
For B1, the binding [3] was “binds”.

— PMC6608980, “The lectin-specific activity of Toxoplasma gondii microneme proteins 1 and 4 binds Toll-like receptor 2 and 4 N-glycans to regulate innate immune priming” (PLoS Pathogens, 2019)
